Test results: PubChem BioAssay AID1671190 (National Center for Advancing Translational Sciences (NCATS), 2021)
Screen size: about 580,000 compounds; about 6,100 (1.1%) were called active. Inconclusive means that the source gave no clear call. Such entries were picked first, then a sample of the others. Calls follow the shape of the dose curve; as a rule, active = well fitted inhibition curve with a large enough effect; inconclusive = small, poorly fitted or top-dose-only effect, or another doubt; inactive = no such curve, though single readings can be large or run the other way. Potencies beside an inconclusive call are fits to weak or partial responses and may not hold up.

Protein sequences, listed by entry. Tags and fused reporters are not part of them. Lines headed by an entry give the natural chain unless they say otherwise; changes in a name come on top.
UniProt P18054: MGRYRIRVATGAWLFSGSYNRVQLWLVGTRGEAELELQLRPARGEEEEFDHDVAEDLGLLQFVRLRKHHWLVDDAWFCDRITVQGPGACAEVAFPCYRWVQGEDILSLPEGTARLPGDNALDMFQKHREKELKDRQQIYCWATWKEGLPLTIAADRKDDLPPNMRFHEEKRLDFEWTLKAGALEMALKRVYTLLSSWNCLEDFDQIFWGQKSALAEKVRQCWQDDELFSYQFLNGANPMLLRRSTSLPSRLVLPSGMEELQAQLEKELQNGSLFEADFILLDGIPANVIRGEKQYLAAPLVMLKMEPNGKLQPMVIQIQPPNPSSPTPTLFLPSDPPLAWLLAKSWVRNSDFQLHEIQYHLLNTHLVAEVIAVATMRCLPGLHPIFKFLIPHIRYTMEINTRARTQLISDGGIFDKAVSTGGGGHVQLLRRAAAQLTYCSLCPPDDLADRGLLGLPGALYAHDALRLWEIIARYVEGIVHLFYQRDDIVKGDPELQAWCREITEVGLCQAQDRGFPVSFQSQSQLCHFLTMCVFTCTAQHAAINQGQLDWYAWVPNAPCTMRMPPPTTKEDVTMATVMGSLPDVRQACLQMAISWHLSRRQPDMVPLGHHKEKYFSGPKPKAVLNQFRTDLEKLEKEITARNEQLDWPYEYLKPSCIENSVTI

target: Polyunsaturated fatty acid lipoxygenase ALOX12 (Homo sapiens) (UniProt P18054); assay: Primary qHTS assay for inhibitors of human arachidonate 12S-lipoxygenase (ALOX12): Round 2; conditions: purified 12hLO, xylenol orange hydroperoxide absorbance; activity change, negative = inhibition: at 108 µM (top of the series) unless noted
Summary of the method: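 Hydroperoxide product was detected by ferrous iron/xylenol orange as the 573 to 405 nm absorbance ratio. Arachidonic acid at 40 uM (final) was turned over for 30 min at room temperature by 150 nM human 12hLO, pH 7.0 Hepes buffer, after 15 min compound preincubation.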
% is scaled to controls: 0 for no effect and ±100 for the full control effect; potency is read from the fitted curve at half-maximal effect.

| Structure (SMILES) | Potency | activity change, negative = inhibition |
| --- | --- | --- |
| CCc1cccc(NC(=O)Cn2c(=O)c3c(ncn3C3CCCC3)n(Cc3ccccc3)c2=O)c1 | inactive | – |
| CCOC(=O)c1c(C)c(C(=O)NCc2ccccc2OC)c(C)n1C | inactive | – |
| O=C(CCCCCCC(=O)NCCN1CCCC1)NCCN1CCCC1 | inconclusive: 141 µM [inhibitor, single point] | – |
| Cc1ccc2c(C)c(CCC(=O)Nc3ccc(F)cc3F)c(=O)oc2c1 | inactive | – |
| CC1(C)[C@H](Cc2cc(COc3ccccc3)on2)C[C@@H]1NC(=O)c1cccs1 | inconclusive: 100 µM [inhibitor, partial curve, poor fit] | – |
| CCc1[nH]c2c(CNC(=O)c3cnc(C)nc3)cc(C)cc2c1C | inconclusive: 10 µM [inhibitor, full curve, poor fit] | – |
| CC(/C=C/c1ccccc1)=N/NC(=O)C(c1ccccc1)c1ccccc1 | inactive | – |
| CCOc1ccc2nc(SCC3CC3(Cl)Cl)[nH]c2c1 (stereo not drawn) | inconclusive: 3.55 µM [inhibitor, full curve, poor fit] | – |
| COc1cc(CN2CCC(C(=O)NC3CCCC3)CC2)cc(Br)c1O | inconclusive: 0.0794 µM [inhibitor, full curve, poor fit] | – |
| CCCc1nc2ccc(Br)cn2c1Cc1cccc(Cl)c1 | inconclusive: 31.6 µM [inhibitor, single point] | – |
| CCSCCNC(=O)c1c(C)noc1-c1ccc(C(C)(C)C)cc1 | inconclusive: 28.2 µM [inhibitor, full curve] | – |
| ON=C1CCCCCCCC1 | – | inconclusive: -33.5% [inhibitor] |
| Cc1cc(C)c(NC(=O)CSc2nnc(Cc3cccn3C)n2-c2ccc(F)cc2)c(C)c1 | inactive | – |
| CCOc1ccc(S(=O)(=O)N(CC(=O)NCc2cccnc2)c2ccc(C)cc2)cc1 | inactive | – |
| CCOc1ccc(CNC(=O)c2ncoc2-c2ccc(C)s2)cc1OC | inactive | – |
| CC(=O)N(C(C)=O)c1ncc2c([nH]c3ccccc32)c1C#N | inactive | – |
| CCc1ccc(NC(=S)N2CCN(S(=O)(=O)c3ccccc3)CC2)cc1 | inconclusive: 44.7 µM [inhibitor, single point] | – |
| COc1ccc(NC(=O)c2cc(S(=O)(=O)N3CCCC3)ccc2OC)cc1 | inactive | – |
| O=C1CC(c2noc(-c3ccc(-c4ccccc4)cc3)n2)CN1c1ccc(F)cc1 (stereo not drawn) | inactive | – |
| COc1ccc(C2C(C(=O)Nc3cccc(OC)c3)c3ccccc3C(=O)N2C)cc1 (stereo not drawn) | inactive | – |
| COC(=O)C1=CN(Cc2cccs2)C=C(C(=O)OC)C1c1ccc(Cl)c(F)c1 | inconclusive: 15.8 µM [inhibitor, full curve] | – |
| CC(C)Cc1nn2c(=O)cc(COC(=O)c3ccc(NC(=O)C4CCCCC4)cc3)nc2s1 | inactive | – |
| Cc1cc(C(=O)CN2CCN(CC(=O)Nc3cccc(F)c3)CC2)c(C)n1C1CC1 | inconclusive: 126 µM [inhibitor, single point] | – |

Record cards (already shown):
Cc1cc(C)c(NC(=O)CSc2nnc(Cc3cccn3C)n2-c2ccc(F)cc2)c(C)c1 is entered as Potency: inactive
CCOc1ccc(S(=O)(=O)N(CC(=O)NCc2cccnc2)c2ccc(C)cc2)cc1 is entered as Potency: inactive

Additional records:

| Structure (SMILES) | Potency | activity change, negative = inhibition |
| --- | --- | --- |
| COc1cccc(C(=O)Nc2nnc(S(=O)(=O)N(C)Cc3ccccc3)s2)c1 | inactive | – |
| COc1cc(NC(=O)COC(=O)c2n[nH]c3ccccc23)c(C)cc1[N+](=O)[O-] | inactive | – |
| Nc1c(S(=O)(=O)c2ccccc2)c2nc3ccccc3nc2n1/N=C/c1ccco1 | inconclusive: 6.31 µM [inhibitor, partial curve, poor fit] | – |
| NC(=O)C1CCN(CC(=O)c2c[nH]c3ccc(F)cc23)CC1 | inconclusive: 56.2 µM [inhibitor, partial curve, poor fit] | – |
| Cc1ccccc1C1CCCN(C(=O)c2cnc(-c3cccnc3)nc2)C1 (stereo not drawn) | inconclusive: 112 µM [inhibitor, partial curve, poor fit] | – |
| Cc1cccc(C)c1NC(=O)c1ccccc1C(=O)O | inconclusive: 35.5 µM [inhibitor, partial curve, poor fit] | – |
| CCN(CC(=O)Nc1cc(Cl)ccc1C)C(=O)CCOc1ccc(C)cc1 | inconclusive: 100 µM [inhibitor, partial curve, poor fit] | – |
| O=C(NCCN1CCOCC1)NC1(C(F)(F)F)Oc2ccc(Cl)cc2O1 (stereo not drawn) | inconclusive: 44.7 µM [inhibitor, partial curve] | – |
| CCC(C(=O)N1CCN(c2ncccn2)CC1)c1ccccc1 (stereo not drawn) | inactive | – |
| COc1cccc(CC(=O)N(CCC2=CCCCC2)c2c(N)n(Cc3ccccc3)c(=O)[nH]c2=O)c1 | inconclusive: 50.1 µM [inhibitor, partial curve, poor fit] | – |
| Cc1cccc(C(=O)N2CCc3cc(CNC(=O)CSc4ccccc4)ccc32)c1 | inconclusive: 141 µM [inhibitor, partial curve, poor fit] | – |
| COc1ccc(C(=O)N2CCCc3ccccc32)cc1OC | inactive | – |
| CCCN1C(=O)/C(=C/c2ccc(C)o2)SC1=Nc1ccc(OC)cc1 | active: 12.6 µM | – |
| Cc1cc(OCCn2ccnc2)ccc1C(C)C | inconclusive: 0.891 µM [inhibitor, full curve, poor fit] | – |
| COc1cccc(C(=O)N2CCC(N(C)C3CCOCC3)CC2)c1 | inactive | – |
| Nc1nc(Nc2ccccc2)nc(NCc2ccco2)c1[N+](=O)[O-] | inconclusive: 0.398 µM [inhibitor, full curve, poor fit] | – |
| COC(=O)c1ccc(NC(=O)CN(C)S(=O)(=O)c2ccc(Br)s2)cc1 | inconclusive: 63.1 µM [inhibitor, partial curve, poor fit] | – |
| CCCCCCCOc1ccc(/C=C/c2ccc(CCCCCCC)cn2)cc1 | inactive | – |
| CC(C)CN1CCC(c2nc3ccc(F)cc3c(=O)[nH]2)CC1 | inconclusive: 22.4 µM [inhibitor, partial curve, poor fit] | – |
| O=C(NN1C(=O)C2C3c4ccccc4C(c4ccccc43)[C@@H]2C1=O)c1ccccc1 (stereo partly drawn) | inconclusive: 0.708 µM [inhibitor, full curve, poor fit] | – |
| O=C(OCc1ccc(F)cc1Cl)c1ccccc1Sc1ccc(C(F)(F)F)cc1[N+](=O)[O-] | inconclusive: 50.1 µM [inhibitor, partial curve, poor fit] | – |
| CCOC(=O)c1[nH]c(Cc2[nH]c(C(=O)OCC)c(C)c2CCC(=O)OC)c(CCC(=O)OC)c1C | inconclusive: 44.7 µM [inhibitor, partial curve, poor fit] | – |
| Cc1cc2ccccn2c1C(=O)c1ccncc1 | inactive | – |

Some of these compounds in order of molecular weight, falling:

| Structure (SMILES) | Potency | activity change, negative = inhibition |
| --- | --- | --- |
| Nc1nc(Nc2ccccc2)nc(NCc2ccco2)c1[N+](=O)[O-] | inconclusive: 0.398 µM [inhibitor, full curve, poor fit] | – |
| CCC(C(=O)N1CCN(c2ncccn2)CC1)c1ccccc1 (stereo not drawn) | inactive | – |
| Cc1cc2ccccn2c1C(=O)c1ccncc1 | inactive | – |

Later entries:

| Structure (SMILES) | Potency | activity change, negative = inhibition |
| --- | --- | --- |
| COc1ccc(Cn2ccnc2SCC(=O)Nc2nnc(C)s2)cc1 | inconclusive: 3.16 µM [inhibitor, full curve, poor fit] | – |
| Nc1nn(-c2ccccc2)c(N)c1N=Nc1ccc2c(c1)OCO2 | inconclusive: 50.1 µM [inhibitor, partial curve, poor fit] | – |
| COc1ccc(N=C(C)C2=C(O)CSC2=O)cc1 | inactive | – |
| Cc1ccc(CN2CCCN(c3ccc(C(=O)NCc4ccc5c(c4)OCO5)cc3)C2=O)cc1 | inconclusive: 63.1 µM [inhibitor, partial curve, poor fit] | – |
| Cc1ccc(C(=O)NC[C@H]2O[C@@H](CC(=O)N3CCc4ccccc43)[C@H](O)[C@@H]2O)cc1 | inconclusive: 22.4 µM [inhibitor, full curve] | – |
| Cc1ccnc(NC(=O)c2cc3cc(F)ccc3s2)c1 | inconclusive: 44.7 µM [inhibitor, partial curve, poor fit] | – |
| O=C(NC(c1ccc(Cl)cc1)c1cnccn1)C1CCN(Cc2cccc(C(F)(F)F)c2)CC1 (stereo not drawn) | inconclusive: 39.8 µM [inhibitor, partial curve, poor fit] | – |
| CCc1ccc2c(CN3CCc4cc(OC)c(OC)cc4C3)cc(=O)oc2c1 | inconclusive: 15.8 µM [inhibitor, full curve, poor fit] | – |
| COc1cccc(CNC(=O)CN2C(=O)COc3ccc(S(=O)(=O)N4CCOCC4)cc32)c1 | inconclusive: 0.224 µM [inhibitor, full curve, poor fit] | – |
| COc1ccc(-c2cc(=O)oc3cc(OCC(=O)NCC(O)c4ccccc4)ccc23)cc1 (stereo not drawn) | – | inconclusive: -30.3% [inhibitor] |
| COc1ccccc1S(=O)(=O)N(C)C[C@@H]1OCc2cnnn2CCCC(=O)N([C@@H](C)CO)C[C@H]1C | inconclusive: 25.1 µM [inhibitor, partial curve, poor fit] | – |
| COc1ccc(C(=O)/C=C/c2ccc(OCC(=O)O)c(OC)c2)cc1F | inconclusive: 50.1 µM [inhibitor, partial curve, poor fit] | – |
| Cc1cc(C)c(NC(=O)Cn2c(=O)n(Cc3ccc(C(=O)NCc4ccc5c(c4)OCO5)cc3)c(=O)c3ccccc32)c(C)c1 | inconclusive: 89.1 µM [inhibitor, partial curve, poor fit] | – |
| O=C(CSc1ncnc2scc(-c3ccccc3)c12)N1CCN(Cc2ccc3c(c2)OCO3)CC1 | inactive | – |
| CNCCNS(=O)(=O)c1cccc2cnccc12 | inactive | – |
| O=S(=O)(Nc1nc2ccccc2nc1Nc1ccccc1Cl)c1cccs1 | inactive | – |
| CCn1cc(-c2ccc(C)cc2)cc1C(=O)NCCN1CCOCC1 | inconclusive: 11.2 µM [inhibitor, partial curve] | – |
| Cc1[nH]c2ccccc2c1C(=O)NCc1ccccc1 | inactive | – |
| Cc1ccc(S(=O)(=O)N2CCN(CCNC(=O)C(=O)Nc3ccc(F)cc3)CC2)cc1 | inactive | – |
| Cc1ccn2c(=O)nc(SCC(=O)Nc3ccc4c(c3)OCCO4)nc2c1 | inactive | – |
| CCN(CC)S(=O)(=O)c1cc(NC(=O)CCc2c(C)nc3ncnn3c2C)ccc1C | inactive | – |
| CC12CCC3C(=CCc4cc(O)ccc43)C1CC(=NO)C2O (stereo not drawn) | inconclusive: 2.51 µM [inhibitor, single point] | – |
